The values that follow come from PMC9520665, “Chaperonin containing TCP-1 (CCT/TRiC) is a novel therapeutic and diagnostic target for neuroblastoma” (Frontiers in Oncology, 2022).

For this experiment, the target named is T1, biotinylated CT20p.
T1 sequence (peptide, biotin (position not stated)): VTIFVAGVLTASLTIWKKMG
Description: condition: 0.1-50 nmol biotin-CT20p with 0.1 nmol CCT2 protein; pull-down; 0.1-50 nmol biotin-CT20p (or biotin alone) mixed with 0.1 nmol recombinant CCT2 protein in 20 mM Tris-HCl, 3 h at room temperature, then overnight at 4°C with streptavidin-agarose beads; immunoblot for CCT2; both purified. A general note: A western blot detects proteins with antibodies after separation by electrophoresis.

No constants are given. Whether binding was seen depends on the method and setting.

B1: CCT2(150-407) (domain or fragment, UniProt P78371-1 150-407)
chain: SDEVKFRQDLMNIAGTTLSSKLLTHHKDHFTKLAVEAVLRLKGSGNLEAIHIIKKLGGSLADSYLDEGFLLDKKIGVNQPKRIENAKILIANTGMDTDKIKIFGSRVRVDSTAKVAEIEHAEKEKMKEKVERILKHGINCFINRQLIYNYPEQLFGAAGVMAIEHADFAGVERLALVTGGEIASTFDHPELVKLGSCKLIEEVMIGEDKLIHFSGVALGEACTIVLRGATQQILDEAERSLHDALCVLAQTVKDSRTV
Take B1: the binding entry is on record as “no binding”.
